In the supplement of paper PMC10849652:
Some of the results follow.

By UniProt entry, the sequences of proteins in these tests, tags left out. Where a name states a change or a piece, a line headed by the entry shows the natural chain unless it says otherwise.
UniProt Q15067: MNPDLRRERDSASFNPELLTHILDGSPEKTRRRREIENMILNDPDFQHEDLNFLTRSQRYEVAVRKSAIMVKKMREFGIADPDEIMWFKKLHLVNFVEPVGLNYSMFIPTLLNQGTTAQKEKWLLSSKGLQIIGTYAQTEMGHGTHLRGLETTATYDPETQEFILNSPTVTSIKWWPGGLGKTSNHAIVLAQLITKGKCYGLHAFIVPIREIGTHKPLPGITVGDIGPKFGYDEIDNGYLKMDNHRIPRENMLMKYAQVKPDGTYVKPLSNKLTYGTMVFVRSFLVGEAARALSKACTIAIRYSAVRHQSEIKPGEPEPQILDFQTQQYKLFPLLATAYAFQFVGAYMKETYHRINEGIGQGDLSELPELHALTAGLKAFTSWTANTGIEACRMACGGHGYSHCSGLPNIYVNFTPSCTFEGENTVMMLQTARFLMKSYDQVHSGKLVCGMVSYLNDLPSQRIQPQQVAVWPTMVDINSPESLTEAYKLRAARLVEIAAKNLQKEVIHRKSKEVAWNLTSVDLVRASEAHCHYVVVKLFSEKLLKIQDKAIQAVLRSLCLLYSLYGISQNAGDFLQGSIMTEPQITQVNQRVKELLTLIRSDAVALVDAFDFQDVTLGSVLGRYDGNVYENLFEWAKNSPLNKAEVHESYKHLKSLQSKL
UniProt Q9NX38: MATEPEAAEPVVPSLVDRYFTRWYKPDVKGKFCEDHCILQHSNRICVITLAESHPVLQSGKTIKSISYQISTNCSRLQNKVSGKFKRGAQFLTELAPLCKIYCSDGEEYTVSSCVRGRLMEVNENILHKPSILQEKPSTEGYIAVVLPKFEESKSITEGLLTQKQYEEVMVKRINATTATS
UniProt Q6PD74: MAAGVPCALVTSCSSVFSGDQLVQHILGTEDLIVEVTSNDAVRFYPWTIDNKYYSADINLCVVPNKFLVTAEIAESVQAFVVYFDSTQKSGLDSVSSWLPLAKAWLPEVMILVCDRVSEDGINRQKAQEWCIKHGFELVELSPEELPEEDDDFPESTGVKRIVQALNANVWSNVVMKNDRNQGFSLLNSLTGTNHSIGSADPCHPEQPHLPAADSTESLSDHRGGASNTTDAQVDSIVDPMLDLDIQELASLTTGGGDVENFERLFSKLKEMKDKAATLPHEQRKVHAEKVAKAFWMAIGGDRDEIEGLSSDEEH
UniProt P21399: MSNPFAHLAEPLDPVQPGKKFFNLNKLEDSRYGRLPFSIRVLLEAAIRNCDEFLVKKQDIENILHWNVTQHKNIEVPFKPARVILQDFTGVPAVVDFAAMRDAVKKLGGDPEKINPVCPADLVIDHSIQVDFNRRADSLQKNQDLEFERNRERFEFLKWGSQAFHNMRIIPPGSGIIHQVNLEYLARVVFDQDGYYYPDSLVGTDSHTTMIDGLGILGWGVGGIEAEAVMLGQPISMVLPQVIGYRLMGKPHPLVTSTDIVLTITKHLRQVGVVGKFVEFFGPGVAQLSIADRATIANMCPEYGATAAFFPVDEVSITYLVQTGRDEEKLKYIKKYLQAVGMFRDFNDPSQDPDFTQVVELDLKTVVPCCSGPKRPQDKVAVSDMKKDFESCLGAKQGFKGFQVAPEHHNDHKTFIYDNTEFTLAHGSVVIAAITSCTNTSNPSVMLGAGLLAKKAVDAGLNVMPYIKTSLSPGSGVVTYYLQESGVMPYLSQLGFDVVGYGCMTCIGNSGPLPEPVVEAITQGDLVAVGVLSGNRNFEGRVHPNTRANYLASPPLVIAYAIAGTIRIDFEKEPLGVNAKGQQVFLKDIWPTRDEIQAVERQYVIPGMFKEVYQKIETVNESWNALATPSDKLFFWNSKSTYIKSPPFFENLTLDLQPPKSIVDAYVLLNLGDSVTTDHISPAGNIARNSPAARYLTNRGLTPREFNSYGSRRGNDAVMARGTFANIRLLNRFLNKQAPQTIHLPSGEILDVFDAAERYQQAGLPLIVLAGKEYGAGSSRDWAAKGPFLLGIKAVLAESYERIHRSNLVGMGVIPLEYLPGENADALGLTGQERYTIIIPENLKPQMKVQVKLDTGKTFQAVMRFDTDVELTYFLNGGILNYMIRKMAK
UniProt Q8IZY2: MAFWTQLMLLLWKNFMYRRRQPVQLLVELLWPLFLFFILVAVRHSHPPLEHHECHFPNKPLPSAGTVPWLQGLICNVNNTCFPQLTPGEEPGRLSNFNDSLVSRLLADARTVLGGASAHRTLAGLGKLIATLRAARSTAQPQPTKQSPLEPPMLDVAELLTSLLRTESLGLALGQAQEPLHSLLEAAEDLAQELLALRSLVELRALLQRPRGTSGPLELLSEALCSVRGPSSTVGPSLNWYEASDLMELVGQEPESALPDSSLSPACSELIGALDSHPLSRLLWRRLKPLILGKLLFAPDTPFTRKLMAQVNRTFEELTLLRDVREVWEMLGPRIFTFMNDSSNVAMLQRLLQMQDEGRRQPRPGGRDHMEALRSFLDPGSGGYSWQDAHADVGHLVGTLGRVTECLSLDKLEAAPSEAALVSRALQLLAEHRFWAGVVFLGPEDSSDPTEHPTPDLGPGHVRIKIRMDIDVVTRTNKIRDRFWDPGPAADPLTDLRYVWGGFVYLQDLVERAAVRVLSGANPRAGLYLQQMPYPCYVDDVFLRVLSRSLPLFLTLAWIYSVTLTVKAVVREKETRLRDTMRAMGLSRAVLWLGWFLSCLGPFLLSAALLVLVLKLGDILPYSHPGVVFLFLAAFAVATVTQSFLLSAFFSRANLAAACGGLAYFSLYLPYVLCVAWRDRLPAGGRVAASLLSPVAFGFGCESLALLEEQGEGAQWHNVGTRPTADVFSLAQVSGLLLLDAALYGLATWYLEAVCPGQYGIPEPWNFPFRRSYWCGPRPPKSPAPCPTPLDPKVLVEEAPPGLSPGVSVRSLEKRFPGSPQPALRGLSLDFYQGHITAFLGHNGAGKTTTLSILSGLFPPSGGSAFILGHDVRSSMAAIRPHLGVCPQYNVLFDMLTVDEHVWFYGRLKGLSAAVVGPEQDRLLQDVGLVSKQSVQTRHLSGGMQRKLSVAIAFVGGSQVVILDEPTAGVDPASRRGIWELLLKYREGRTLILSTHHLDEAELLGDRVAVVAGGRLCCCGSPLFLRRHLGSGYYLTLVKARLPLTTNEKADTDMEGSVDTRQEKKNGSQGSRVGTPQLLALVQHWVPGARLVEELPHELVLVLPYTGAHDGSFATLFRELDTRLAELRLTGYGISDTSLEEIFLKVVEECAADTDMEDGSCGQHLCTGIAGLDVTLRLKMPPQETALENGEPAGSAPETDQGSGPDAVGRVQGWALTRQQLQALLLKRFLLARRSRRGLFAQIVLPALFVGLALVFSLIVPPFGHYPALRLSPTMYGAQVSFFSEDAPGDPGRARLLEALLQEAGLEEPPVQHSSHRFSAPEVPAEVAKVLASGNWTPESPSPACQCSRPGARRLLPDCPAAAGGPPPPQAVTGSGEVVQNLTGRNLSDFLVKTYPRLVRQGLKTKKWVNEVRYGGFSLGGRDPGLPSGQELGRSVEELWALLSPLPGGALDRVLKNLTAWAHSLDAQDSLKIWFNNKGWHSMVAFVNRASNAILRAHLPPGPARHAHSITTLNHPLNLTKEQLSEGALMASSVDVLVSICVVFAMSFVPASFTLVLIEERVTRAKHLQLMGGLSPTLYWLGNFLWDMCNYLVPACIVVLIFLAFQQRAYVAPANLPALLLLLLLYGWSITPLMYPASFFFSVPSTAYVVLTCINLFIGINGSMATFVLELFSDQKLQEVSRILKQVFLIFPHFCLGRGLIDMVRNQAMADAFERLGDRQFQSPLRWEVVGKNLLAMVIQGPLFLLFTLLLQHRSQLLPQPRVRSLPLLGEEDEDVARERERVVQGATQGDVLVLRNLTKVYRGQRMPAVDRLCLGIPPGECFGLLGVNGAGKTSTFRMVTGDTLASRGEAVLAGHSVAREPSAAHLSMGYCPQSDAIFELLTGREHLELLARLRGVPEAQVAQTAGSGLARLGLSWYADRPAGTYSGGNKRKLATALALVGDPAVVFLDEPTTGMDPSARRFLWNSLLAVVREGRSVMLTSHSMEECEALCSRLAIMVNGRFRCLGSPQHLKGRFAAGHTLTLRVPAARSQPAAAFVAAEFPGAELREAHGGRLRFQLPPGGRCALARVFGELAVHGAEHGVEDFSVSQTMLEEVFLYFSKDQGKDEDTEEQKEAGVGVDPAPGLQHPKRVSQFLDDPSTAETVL
UniProt Q9NR19, whole entry, looked up: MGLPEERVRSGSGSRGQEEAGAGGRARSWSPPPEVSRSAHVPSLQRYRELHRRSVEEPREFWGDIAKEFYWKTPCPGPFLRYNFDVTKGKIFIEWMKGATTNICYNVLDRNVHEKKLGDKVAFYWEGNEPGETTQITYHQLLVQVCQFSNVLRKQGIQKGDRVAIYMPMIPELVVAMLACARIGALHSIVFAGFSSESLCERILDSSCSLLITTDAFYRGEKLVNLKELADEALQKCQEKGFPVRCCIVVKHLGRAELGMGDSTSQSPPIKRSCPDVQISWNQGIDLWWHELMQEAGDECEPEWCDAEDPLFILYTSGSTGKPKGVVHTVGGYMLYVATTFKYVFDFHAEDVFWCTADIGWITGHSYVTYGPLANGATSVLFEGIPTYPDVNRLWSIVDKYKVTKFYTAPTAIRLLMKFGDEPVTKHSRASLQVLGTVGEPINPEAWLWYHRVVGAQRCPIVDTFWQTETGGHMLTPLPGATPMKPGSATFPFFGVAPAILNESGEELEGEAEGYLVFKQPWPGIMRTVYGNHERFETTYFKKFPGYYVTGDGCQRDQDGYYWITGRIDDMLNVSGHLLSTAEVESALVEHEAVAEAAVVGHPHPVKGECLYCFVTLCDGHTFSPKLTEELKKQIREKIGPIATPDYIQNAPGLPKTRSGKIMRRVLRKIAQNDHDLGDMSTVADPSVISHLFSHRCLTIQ
UniProt P42025, whole entry, looked up: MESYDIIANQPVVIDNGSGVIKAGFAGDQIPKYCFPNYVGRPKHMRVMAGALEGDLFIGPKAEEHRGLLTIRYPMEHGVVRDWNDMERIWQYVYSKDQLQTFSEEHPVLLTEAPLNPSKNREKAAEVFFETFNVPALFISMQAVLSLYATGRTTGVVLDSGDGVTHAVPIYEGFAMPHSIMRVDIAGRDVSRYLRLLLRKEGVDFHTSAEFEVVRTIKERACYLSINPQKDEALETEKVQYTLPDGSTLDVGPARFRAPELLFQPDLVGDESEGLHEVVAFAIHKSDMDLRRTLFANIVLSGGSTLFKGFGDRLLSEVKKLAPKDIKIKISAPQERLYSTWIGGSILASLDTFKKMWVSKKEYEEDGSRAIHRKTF
UniProt Q9UNA0: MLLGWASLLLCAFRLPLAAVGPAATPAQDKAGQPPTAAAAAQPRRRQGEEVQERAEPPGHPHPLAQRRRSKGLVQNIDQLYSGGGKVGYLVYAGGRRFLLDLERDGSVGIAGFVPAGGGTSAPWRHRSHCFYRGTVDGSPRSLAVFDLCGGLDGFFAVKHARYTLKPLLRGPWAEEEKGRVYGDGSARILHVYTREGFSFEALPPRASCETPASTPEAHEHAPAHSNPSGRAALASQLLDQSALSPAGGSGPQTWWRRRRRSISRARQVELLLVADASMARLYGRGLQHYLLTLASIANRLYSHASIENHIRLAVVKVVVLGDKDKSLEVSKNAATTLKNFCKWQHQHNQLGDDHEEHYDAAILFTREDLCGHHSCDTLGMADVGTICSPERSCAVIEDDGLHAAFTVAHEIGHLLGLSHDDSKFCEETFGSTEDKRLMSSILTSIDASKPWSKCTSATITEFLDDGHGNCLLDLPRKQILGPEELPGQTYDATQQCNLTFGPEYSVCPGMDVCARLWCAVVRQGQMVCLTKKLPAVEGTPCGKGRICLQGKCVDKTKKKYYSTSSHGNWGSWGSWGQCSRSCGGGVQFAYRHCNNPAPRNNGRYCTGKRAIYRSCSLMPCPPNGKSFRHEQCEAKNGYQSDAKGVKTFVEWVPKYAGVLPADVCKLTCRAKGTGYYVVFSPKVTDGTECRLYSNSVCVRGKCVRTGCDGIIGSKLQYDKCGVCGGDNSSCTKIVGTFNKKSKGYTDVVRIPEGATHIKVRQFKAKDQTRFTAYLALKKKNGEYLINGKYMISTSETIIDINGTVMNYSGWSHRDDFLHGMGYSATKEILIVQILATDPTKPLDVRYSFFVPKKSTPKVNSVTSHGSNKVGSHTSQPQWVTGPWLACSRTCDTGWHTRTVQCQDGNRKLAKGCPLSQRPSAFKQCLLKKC
UniProt P07311: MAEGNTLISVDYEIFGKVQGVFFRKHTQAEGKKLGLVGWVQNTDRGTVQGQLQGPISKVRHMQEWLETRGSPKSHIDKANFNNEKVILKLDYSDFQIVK
UniProt Q9NPJ3: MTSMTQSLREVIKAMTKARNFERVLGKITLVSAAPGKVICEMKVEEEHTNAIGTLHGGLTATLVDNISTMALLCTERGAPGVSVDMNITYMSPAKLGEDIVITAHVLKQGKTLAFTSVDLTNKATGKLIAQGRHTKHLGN
UniProt P24666: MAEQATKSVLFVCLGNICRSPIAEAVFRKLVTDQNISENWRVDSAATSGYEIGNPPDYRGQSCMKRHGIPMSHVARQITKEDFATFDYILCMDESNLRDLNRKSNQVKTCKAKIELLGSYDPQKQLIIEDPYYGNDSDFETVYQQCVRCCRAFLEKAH

What was measured:
Experiment in all cases: log2 fold change, soluble protein after heating vs DMSO (PISA); higher = thermal stabilisation; K562 cells, 10 uM, 30 min; active = over 0.2 and 3.5 SD of the protein, either way, in both replicates (recomputed)
[1] = compound: Cc1ccc(NC(=O)c2ccc(CN3CC[C@H](N(C)C)C3)c(C(F)(F)F)c2)cc1Nc1nccc(-c2cncnc2)n1 [bafetinib]
Method in brief: (§1)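 K562 cells at 2×10^6 cells/mL were given 10 μM compound for 30 min. Aliquots then went through 3 min of heating across 48°C-58°C, were pooled, and were extracted in PBS with 0.5% NP-40 at 4°C, and the supernatant after 21,000xg for 90 min was quantified by TMTpro 16plex LC-MS/MS with channel sums equalised. Thermal stability relative to control samples, from duplicates, is given as log2 fold change.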

[2] = compound: Cc1cccc(CC(=O)N2CCc3c2ccc(-c2cn(C)c4ncnc(N)c24)c3F)n1
Method in brief: as §1

[3] = compound: Cc1cn(-c2cc(NC(=O)c3ccc(C)c(Nc4nccc(-c5cccnc5)n4)c3)cc(C(F)(F)F)c2)cn1 [nilotinib]
Method in brief: as §1

[4] = compound: Cc1nc(Nc2n[nH]c3c2CN(C(=O)N[C@H](CN(C)C)c2ccccc2)C3(C)C)c2sccc2n1
Method in brief: as §1

[5] = compound: Cc1nc(Nc2ncc(C(=O)Nc3c(C)cccc3Cl)s2)cc(N2CCN(CCO)CC2)n1 [dasatinib]
Method in brief: as §1

[6] = compound: Cc1ncc(-c2ccnc(Nc3ccc(S(C)(=O)=O)cc3)n2)n1C(C)C
Method in brief: as §1

[7] = compound: Cn1cc(-c2ccc3c(c2)CCN3C(=O)Cc2cccc(C(F)(F)F)c2)c2c(N)ncnc21
Method in brief: as §1

[8] = compound: Cn1cc(-c2ccc3nnc(C(F)(F)c4ccc5ncccc5c4)n3n2)cn1
Method in brief: as §1

[9] = compound: Cn1cncc1[C@@](N)(c1ccc(Cl)cc1)c1ccc2c(c1)c(-c1cccc(Cl)c1)cc(=O)n2C [tipifarnib]
Method in brief: as §1

[10] = compound: FC(F)(F)c1ccc(/C=C/c2nc(COc3ccc(CCCCn4ccnn4)cc3)co2)cc1 [mubritinib]
Method in brief: as §1

| Target | log2 fold change [1] | log2 fold change [2] | log2 fold change [3] | log2 fold change [4] | log2 fold change [5] | log2 fold change [6] | log2 fold change [7] | log2 fold change [8] | log2 fold change [9] | log2 fold change [10] |
| --- | --- | --- | --- | --- | --- | --- | --- | --- | --- | --- |
| ABHD16A (UniProt O95870) | inactive: 0.132 | inactive: -0.056 | inactive: 0.177 | inactive: 0.055 | inactive: 0.029 | inactive: -0.058 | inactive: 0.087 | inactive: -0.075 | inactive: -0.01 | inactive: 0.071 |
| ACO2 (UniProt Q99798) | inactive: 0.021 | inactive: -0.025 | inactive: -0.02 | inactive: 0.013 | inactive: -0.118 | inactive: -0.013 | inactive: 0.043 | inactive: -0.016 | inactive: -0.064 | active: -0.522 |
| ABCF3 (UniProt Q9NUQ8) | inactive: 0.124 | inactive: 0.234 | inactive: -0.084 | inactive: -0.115 | inactive: 0.053 | inactive: -0.061 | inactive: -0.147 | inactive: -0.072 | inactive: -0.013 | inactive: -0.18 |
| ACOX1 isoform 2 (UniProt Q15067) | inactive: -0.005 | inactive: -0.04 | inactive: 0.153 | inactive: 0.052 | inactive: -0.007 | inactive: -0.022 | inactive: 0.021 | inactive: 0.029 | inactive: -0.017 | inactive: 0.035 |
| ABITRAM (UniProt Q9NX38) | inactive: 0.016 | inactive: 0.116 | inactive: -0.327 | inactive: -0.146 | inactive: -0.316 | active: -0.442 | inactive: -0.004 | inactive: 0.026 | inactive: -0.031 | inactive: 0.046 |
| AAGAB (UniProt Q6PD74) | inactive: -0.046 | inactive: 0.016 | inactive: -0.077 | inactive: -0.109 | inactive: -0.161 | inactive: 0.008 | inactive: -0.197 | inactive: -0.121 | inactive: -0.031 | inactive: 0.017 |
| ADAD1 (UniProt Q96M93) | inactive: -0.085 | inactive: -0.15 | inactive: -0.08 | inactive: -0.037 | inactive: 0.056 | inactive: -0.109 | inactive: -0.096 | inactive: 0.072 |  | inactive: -0.002 |
| ACSM3 (UniProt Q53FZ2) | inactive: 0.009 | inactive: -0.061 | inactive: -0.015 | inactive: 0.002 | inactive: -0.185 | inactive: 0.028 | inactive: 0.012 | inactive: 0.128 | inactive: 0.002 | active: -0.343 |
| ACO1 (UniProt P21399) | inactive: -0.004 | inactive: 0.024 | inactive: 0.018 | inactive: -0.02 | inactive: -0.048 | inactive: -0.001 | inactive: 0.028 | inactive: -0.005 | inactive: -0.01 | inactive: -0.05 |
| ACTBL2 (UniProt Q562R1) | inactive: 0.113 | inactive: -0.124 | inactive: 0.579 | inactive: -0.067 | inactive: 0.398 | inactive: -0.051 |  | inactive: 0.336 | inactive: 0.488 | inactive: -0.267 |
| ABCB7 isoform 2 (UniProt O75027) | inactive: -0.057 | inactive: 0.084 | inactive: -0.098 | inactive: -0.003 | inactive: -0.068 | inactive: -0.026 | inactive: 0.051 | inactive: 0.002 | inactive: -0.138 | inactive: 0.011 |
| ABCA7 (UniProt Q8IZY2) | inactive: -0.15 | inactive: -0.196 | inactive: -0.17 | inactive: -0.153 |  | inactive: 0.17 | inactive: -0.096 |  |  |  |
| ABCA3 (UniProt Q99758) | inactive: 0.164 | inactive: -0.053 |  |  | inactive: -0.027 |  | inactive: -0.022 | inactive: 0.019 | inactive: 0.058 |  |
| ACSS2 isoform 2 (UniProt Q9NR19) | inactive: -0.05 | inactive: -0.025 | inactive: -0.038 | inactive: -0.014 | inactive: -0.077 | inactive: 0.004 | inactive: 0.035 | inactive: -0.018 | inactive: -0.077 | inactive: -0.07 |
| ABCC10 (UniProt Q5T3U5) | inactive: 0.024 | inactive: -0.034 | inactive: -0.14 | inactive: -0.238 | inactive: 0.05 | inactive: -0.187 |  | inactive: 0 | inactive: -0.013 |  |
| ACTR1B (UniProt P42025) | inactive: -0.062 | inactive: -0.221 | inactive: 0.034 | inactive: -0.011 | inactive: 0.034 | inactive: 0.083 | inactive: -0.011 | inactive: 0.003 | inactive: 0.077 | inactive: -0.001 |

Taken from above (two entries):

| Target | log2 fold change [1] | log2 fold change [2] | log2 fold change [3] | log2 fold change [4] | log2 fold change [5] | log2 fold change [6] | log2 fold change [7] | log2 fold change [8] | log2 fold change [9] | log2 fold change [10] |
| --- | --- | --- | --- | --- | --- | --- | --- | --- | --- | --- |
| ACTBL2 (UniProt Q562R1) | inactive: 0.113 | inactive: -0.124 | inactive: 0.579 | inactive: -0.067 | inactive: 0.398 | inactive: -0.051 |  | inactive: 0.336 | inactive: 0.488 | inactive: -0.267 |
| ABCB7 isoform 2 (UniProt O75027) | inactive: -0.057 | inactive: 0.084 | inactive: -0.098 | inactive: -0.003 | inactive: -0.068 | inactive: -0.026 | inactive: 0.051 | inactive: 0.002 | inactive: -0.138 | inactive: 0.011 |

Next results

| Target | log2 fold change [1] | log2 fold change [2] | log2 fold change [3] | log2 fold change [4] | log2 fold change [5] | log2 fold change [6] | log2 fold change [7] | log2 fold change [8] | log2 fold change [9] | log2 fold change [10] |
| --- | --- | --- | --- | --- | --- | --- | --- | --- | --- | --- |
| ABCE1 (UniProt H0Y990) | inactive: 0.095 | inactive: -0.107 | inactive: -0.147 | inactive: 0.137 | inactive: 0.035 | inactive: -0.142 | inactive: -0.005 |  | inactive: -0.013 | inactive: 0 |
| ADAMTS5 (UniProt Q9UNA0) | inactive: -0.103 | inactive: -0.066 | inactive: 0.022 | inactive: 0.052 | inactive: 0.033 | inactive: -0.079 | inactive: 0.088 | inactive: 0.063 |  | inactive: 0.154 |
| AAK1, A0A096LP25 | inactive: -0.058 | inactive: -0.017 | inactive: -0.084 | inactive: 0.104 | inactive: -0.18 | inactive: 0.028 | inactive: -0.05 | inactive: -0.079 |  | inactive: -0.124 |
| ACYP1 (UniProt P07311) | inactive: 0.017 | inactive: -0.032 | inactive: 0.128 | inactive: 0.013 | inactive: -0.012 | inactive: -0.021 | inactive: 0.087 | inactive: 0.076 | inactive: -0.031 | inactive: -0.033 |
| ABHD10 (UniProt Q9NUJ1) | inactive: 0.015 | inactive: 0.027 | inactive: -0.005 | inactive: 0.007 | inactive: 0.106 | inactive: 0.015 | inactive: -0.008 | inactive: -0.019 | inactive: 0.011 | inactive: 0.021 |
| AAR2 (UniProt Q9Y312) | inactive: -0.019 | inactive: -0.062 | inactive: 0.058 | inactive: 0.009 | inactive: -0.006 | inactive: 0.019 | inactive: -0.079 | inactive: -0.034 | inactive: 0.004 | inactive: -0.036 |
| AARSD1 isoform 3 (UniProt Q9BTE6) | inactive: 0.009 | inactive: 0.065 | inactive: -0.013 | inactive: -0.038 | inactive: -0.062 | inactive: 0.031 | inactive: -0.004 | inactive: 0.002 | inactive: 0.022 | inactive: 0.064 |
| ABCC4 (UniProt O15439) | inactive: 0.008 | inactive: -0.003 | inactive: 0.034 | inactive: 0.001 | inactive: 0.029 | inactive: -0.004 | inactive: 0.006 | inactive: 0.02 | inactive: -0.002 | inactive: 0.034 |
| ACOT13 (UniProt Q9NPJ3) | inactive: -0.041 | inactive: 0.112 | inactive: 0.046 | inactive: -0.037 | inactive: 0.032 | inactive: 0.039 | inactive: -0.022 | inactive: -0.01 | inactive: -0.002 | inactive: 0.007 |
| ACTA1 (UniProt P68133) | inactive: -0.067 | inactive: -0.028 | inactive: 0.009 | inactive: -0.023 | inactive: 0.072 | inactive: -0.002 | inactive: -0.022 | inactive: 0.007 | inactive: 0.002 | inactive: 0.016 |
| ACP1 (UniProt P24666) | inactive: 0.041 | inactive: 0.013 | inactive: 0.078 | inactive: -0.071 | inactive: -0.129 | inactive: -0.01 | inactive: 0.037 |  | inactive: 0.037 | inactive: 0.035 |
| ACTN1 (UniProt P12814) | inactive: -0.017 | inactive: -0.016 | inactive: 0.021 | inactive: 0.008 | inactive: -0.004 | inactive: 0.002 | inactive: 0.027 | inactive: -0.009 | inactive: 0.006 | inactive: 0.022 |
| ABCA4 (UniProt P78363) | inactive: -0.025 | inactive: -0.149 | inactive: 0.106 | inactive: 0.095 |  | inactive: 0.045 | inactive: 0.016 | inactive: -0.071 |  | inactive: 0.154 |
| ACAT1, A0A5F9ZHJ0 | inactive: 0.013 | inactive: -0.069 | inactive: -0.098 | inactive: -0.043 | inactive: 0.01 | inactive: -0.145 | inactive: -0.105 |  | inactive: -0.219 | inactive: 0.095 |
| ACTL6A (UniProt O96019) | inactive: -0.034 | inactive: 0.003 | inactive: 0.007 | inactive: 0.002 | inactive: -0.057 | inactive: -0.056 | inactive: 0.02 | inactive: 0.013 | inactive: -0.036 | inactive: 0.063 |
